## Cleaved PARP in drug-treated melanoma cells

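The test systems are human melanoma cell lines, treated with two drugs together for 72 h and then stained and imaged. Values are the share of nuclei positive for cleaved PARP as a percentage of the same share in the DMSO control: 100 is the control level, higher means more apoptosis. Concentrations were fixed for each drug; these are the higher of two levels. No replicate spread is given; individual values may be noisy. The marker varies much from line to line, for technical or biological reasons.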 This is part of the screen, not chosen by result.

Compounds and concentrations:
cisplatin (8 µM): N.N.[Cl][Pt][Cl]
fingolimod (10 µM): CCCCCCCCc1ccc(CCC(N)(CO)CO)cc1
CHIR-265 (0.4 µM): Cn1c(Nc2ccc(C(F)(F)F)cc2)nc2cc(Oc3ccnc(-c4ncc(C(F)(F)F)[nH]4)c3)ccc21
OSU-03012 (5 µM): NCC(=O)Nc1ccc(-n2nc(C(F)(F)F)cc2-c2ccc3c(ccc4ccccc43)c2)cc1
darinaparsin (2 µM): C[As](C)SC[C@H](NC(=O)CC[C@H](N)C(=O)O)C(=O)NCC(=O)O
Src-I1 (10 µM): COc1cc2ncnc(Nc3ccc(Oc4ccccc4)cc3)c2cc1OC
decitabine (0.5 µM): Nc1ncn([C@H]2C[C@H](O)[C@@H](CO)O2)c(=O)n1
sunitinib (2 µM): CCN(CC)CCNC(=O)c1c(C)[nH]c(/C=C2\C(=O)Nc3ccc(F)cc32)c1C
SU6656 (2 µM): CN(C)S(=O)(=O)c1ccc2c(c1)/C(=C/c1cc3c([nH]1)CCCC3)C(=O)N2
BI-78D3 (1 µM): O=c1[nH]nc(Sc2ncc([N+](=O)[O-])s2)n1-c1ccc2c(c1)OCCO2
tamatinib (2 µM): COc1cc(Nc2ncc(F)c(Nc3ccc4c(n3)NC(=O)C(C)(C)O4)n2)cc(OC)c1OC
GSK650394 (0.8 µM): O=C(O)c1ccc(-c2c[nH]c3ncc(-c4ccccc4)cc23)cc1C1CCCC1
docetaxel (0.0005 µM): CC(=O)O[C@@]12CO[C@@H]1C[C@H](O)[C@@]1(C)C(=O)[C@H](O)C3=C(C)[C@@H](OC(=O)[C@H](O)[C@@H](NC(=O)OC(C)(C)C)c4ccccc4)C[C@@](O)([C@@H](OC(=O)c4ccccc4)[C@H]21)C3(C)C
GW2580 (5 µM): COc1ccc(COc2ccc(Cc3cnc(N)nc3N)cc2OC)cc1
SNS-314 (0.004 µM): O=C(Nc1cccc(Cl)c1)Nc1ncc(CCNc2ncnc3ccsc23)s1
cediranib (2 µM): COc1cc2c(Oc3ccc4[nH]c(C)cc4c3F)ncnc2cc1OCCCN1CCCC1
VX-702 (2 µM): NC(=O)c1ccc(N(C(N)=O)c2c(F)cccc2F)nc1-c1ccc(F)cc1F
temozolomide (10 µM): Cn1nnc2c(C(N)=O)ncn2c1=O
JZL184 (5 µM): O=C(Oc1ccc([N+](=O)[O-])cc1)N1CCC(C(O)(c2ccc3c(c2)OCO3)c2ccc3c(c2)OCO3)CC1

Drugs	C32	A2058	RPMI-7951	SK-MEL-2	SK-MEL-5	SK-MEL-28	WM1716	IST-MEL1	SK-MEL-30	COLO 829
Src-I1 and SU6656	219	175	136	77.5	257	97.9	125	166	46.2	99.0
fingolimod and BI-78D3	748	1090	9940	4380	431	1550	4700	1280	1690	313
sunitinib and OSU-03012	42.5	225	115	485	707	544	25.3	38.8	384	123
temozolomide and sunitinib	86.5	461	38.0	36.3	251	358	549	237	254	167
docetaxel and darinaparsin	674	1990	251	1330	2040	540	1280	484	487	244
BI-78D3 and tamatinib	177	136	70.2	106	277	80.6	314	141	77.8	209
BI-78D3 and CHIR-265	195	287	325	145	2820	88.7	142	127	185	345
OSU-03012 and GW2580	83.8	208	105	339	198	204	25.9	76.8	669	199
GW2580 and cisplatin	123	109	101	99.7	63.0	60.8	95.7	79.3	70.7	100
SU6656 and cisplatin	47.0	55.2	132	13.4	135	26.4	68.8	120	192	146
darinaparsin and OSU-03012	211	95.2	195	1120	770	795	114	215	2670	132
temozolomide and OSU-03012	38.8	278	133	334	224	412	147	190	340	165
OSU-03012 and Src-I1	427	220	2250	387	210	566	30.1	38.9	2090	231
tamatinib and decitabine	241	353	343	149	330	273	495	2310	79.8	119
cediranib and SU6656	174	79.1	133	97.2	178	146	77.7	256	157	97.9
SNS-314 and VX-702	164	103	142	141	40.2	159	84.1	238	90.0	96.2
VX-702 and Src-I1	91.7	130	70.3	71.1	243	157	117	142	77.0	143
JZL184 and Src-I1	176	98.7	187	63.2	174	41.3	23.8	128	216	119
OSU-03012 and cediranib	319	116	200	564	223	313	47.6	163	2030	74.4
CHIR-265 and darinaparsin	138	219	109	219	1000	75.3	281	157	140	165
Src-I1 and GSK650394	83.5	99.9	128	157	161	593	74.4	111	83.1	70.3

2 of the entries, repeated:

- CHIR-265 and darinaparsin : C32: 138; A2058: 219; RPMI-7951: 109; SK-MEL-2: 219; SK-MEL-5: 1000; SK-MEL-28: 75.3; WM1716: 281; IST-MEL1: 157; SK-MEL-30: 140; COLO 829: 165
- sunitinib and OSU-03012 : C32: 42.5; A2058: 225; RPMI-7951: 115; SK-MEL-2: 485; SK-MEL-5: 707; SK-MEL-28: 544; WM1716: 25.3; IST-MEL1: 38.8; SK-MEL-30: 384; COLO 829: 123

Values as published with doi:10.1371/journal.pone.0140310, rounded.